# The supplement of paper PMC10735217
# Some of the results follow. This data set is noisy: repeats of one test often differ as much as different tests do.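 In a drug-repurposing library screen, luminescence reads luciferase driven by eight TEAD-binding elements, stably integrated into human kidney-derived cells. Compounds scoring over five robust Z scores above the plate mean are called hits.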
# System: HEK293A TEAD-LUC reporter
# Test: TEAD-luciferase reporter activity (YAP activation), robust Z score vs plate; higher = stronger YAP/TEAD activation
# Settings: 24 h
SMILES,TEAD-luciferase reporter activity (compound concentration: 200 nM),TEAD-luciferase reporter activity (compound concentration: 2 uM),TEAD-luciferase reporter activity (compound concentration: 10 uM)
CCN(CC)CCC(c1ccccc1)C1CCCCC1 (stereo not drawn),inactive: -1.34,inactive: 0.146,inactive: 0.834
C[C@H](N)C(=O)N[C@@H](CCC(N)=O)C(=O)O [Glutamine dipeptide],inactive: -1.17,inactive: 1.69,inactive: -0.423
CN(C)[C@@H]1C(O)=C(C(=O)NCNC(CCCCN)C(=O)O)C(=O)[C@@]2(O)C(O)=C3C(=O)c4c(O)cccc4[C@@](C)(O)[C@H]3C[C@@H]12 (stereo partly drawn),inactive: -0.686,inactive: 0.0114,active: 10.5
COc1ccc(CNc2c(NCCCN(C)C)c(=O)c2=O)cc1,inactive: 0.258,inactive: -1.43,inactive: -0.78
CN1Cc2cccc3scc(c23)S1(=O)=O,inactive: -0.79,inactive: -0.385,inactive: -1.26
N#Cc1cccnc1N1CCOCC1,inactive: 2.4,inactive: -0.0976,inactive: -1.31
O=C(Nc1ccc(Cl)cc1)c1cc(Br)ccc1O,inactive: 1.22,inactive: 0.00317,inactive: 2.2
c1cc2cc3ccc(OCCN4CCCCC4)cc3nc2cc1OCCN1CCCCC1,inactive: 0.251,inactive: -0.436,inactive: -0.481
COc1cccc(NC(=O)c2ccc(CN3CCCC3)cc2)c1,inactive: -0.601,inactive: 1.34,inactive: 2.48
C1=CC2=N/C(=N\c3ccc(OCCN4CCCC4)c(c3)COC/C=C/COCc3cccc2c3)N1 [Pacritinib],inactive: -1.14,inactive: 4.94,inactive: 2.14
NC(=S)NN=C1C=CC(=NN=C(N)N)C=C1 [ambazone],inactive: -1.56,inactive: -0.156,inactive: -2.16
CC(C)CN(C[C@@H](O)[C@H](Cc1ccccc1)NC(=O)O[C@H]1CO[C@H]2OCC[C@H]21)S(=O)(=O)c1ccc(N)cc1 [darunavir],,inactive: -0.605,
CC(C)CN(C[C@@H](O)[C@H](Cc1ccccc1)NC(=O)O[C@H]1CO[C@H]2OCC[C@H]21)S(=O)(=O)c1ccc(N)cc1 [Darunavir],inactive: -0.867,,inactive: -0.132
COc1ccc(/C=C/C(=O)Nc2ccc3c(c2)NC(=O)C(C)(C)O3)cc1,inactive: 0.554,inactive: 0.385,active: 5.06
CC(NC(=O)C(C)NC(=O)C(N)CCCC(N)C(N)=O)C(=O)O (stereo not drawn),inactive: -0.411,inactive: -0.0627,inactive: 1.53
COc1cccc(OCCCN)c1-c1cc(Nc2cnc(C#N)cn2)n[nH]1,inactive: -0.4,inactive: -1.72,inactive: -1.5
CN(C)CCN1C(=O)c2cccc3cc(NC(N)=O)cc(c23)C1=O,inactive: -1.86,inactive: 0.194,inactive: -0.801
CC(=O)NCC1CC(c2ccc(-c3ccccc3)cc2)=NO1 (stereo not drawn),inactive: -1.05,inactive: -0.55,inactive: -0.616
O=C(O)COc1ccccc1/C=N/NC(=O)c1ccncc1,inactive: -1.06,inactive: -0.325,inactive: -1.59
COc1cc2c(cc1OC)[C@@H](CCN1CCN(c3ccccc3)CC1)[C@@H](C)N2,inactive: 1.19,inactive: -0.91,inactive: -0.554
O=[N+]([O-])c1cc(Cl)cc(Cc2cc(Cl)cc([N+](=O)[O-])c2O)c1O,inactive: 3.65,inactive: -1.74,inactive: 0.714
CC(=O)NC[C@H]1CC(c2ccc(C3=CCN(C(=O)CO)CC3)cc2)=NO1,inactive: -0.382,inactive: -2.06,inactive: -1.12
CCOC(=O)[C@H](Cc1ccc(N)nc1)c1cn(C2CCCCC2)cn1,inactive: 0.842,inactive: -1.76,inactive: -0.231
COC(=O)N[C@H](C(=O)N1CCC[C@H]1c1nc(-c2ccc3c(c2)O[C@@H](c2ccccc2)n2c-3cc3cc(-c4c[nH]c([C@@H]5CCCN5C(=O)[C@@H](NC(=O)OC)C(C)C)n4)ccc32)c[nH]1)C(C)C [Elbasvir],inactive: 2.83,inactive: -1.54,inactive: -0.641
O=C1Cc2ccccc2C(=C2CCN(CCOCCOCCO)CC2)c2ccsc21 [etolotifen],inactive: -0.463,inactive: -0.695,inactive: 0.0739
O=C(O)C[C@@H](CCc1c[nH]c2ccccc12)NC(=O)CNC(=O)CCCC1CCNCC1,inactive: 3.1,inactive: -0.268,inactive: 2.09
Nc1nc(N2CCOCC2)nc(-n2ccnc2)n1,inactive: -1.81,inactive: -1.57,inactive: 1.86

# Part of the list above, tab-delimited.
SMILES	TEAD-luciferase reporter activity (compound concentration: 200 nM)	TEAD-luciferase reporter activity (compound concentration: 2 uM)	TEAD-luciferase reporter activity (compound concentration: 10 uM)
C[C@H](N)C(=O)N[C@@H](CCC(N)=O)C(=O)O [Glutamine dipeptide]	inactive: -1.17	inactive: 1.69	inactive: -0.423
COc1ccc(CNc2c(NCCCN(C)C)c(=O)c2=O)cc1	inactive: 0.258	inactive: -1.43	inactive: -0.78
CN1Cc2cccc3scc(c23)S1(=O)=O	inactive: -0.79	inactive: -0.385	inactive: -1.26
c1cc2cc3ccc(OCCN4CCCCC4)cc3nc2cc1OCCN1CCCCC1	inactive: 0.251	inactive: -0.436	inactive: -0.481
CC(NC(=O)C(C)NC(=O)C(N)CCCC(N)C(N)=O)C(=O)O (stereo not drawn)	inactive: -0.411	inactive: -0.0627	inactive: 1.53
CN(C)CCN1C(=O)c2cccc3cc(NC(N)=O)cc(c23)C1=O	inactive: -1.86	inactive: 0.194	inactive: -0.801
O=C(O)C[C@@H](CCc1c[nH]c2ccccc12)NC(=O)CNC(=O)CCCC1CCNCC1	inactive: 3.1	inactive: -0.268	inactive: 2.09
